# Source: PubChem BioAssay AID504834 (National Center for Advancing Translational Sciences (NCATS), 2011)
# Out of some 320,000 compounds screened, about 22,000 (6.9%) were called active. This list was built around the results that the source calls inconclusive (neither active nor inactive); the mix of calls is not that of the screen. The call rests on the fitted dose curve; in most records, active means well fitted inhibition curve with a large enough effect; inconclusive means small, poorly fitted or top-dose-only effect, or another doubt; inactive means no such curve, though single readings can be large or run the other way. A potency beside an inconclusive call is a rough fit, not a confirmed value.
# Experiment: Primary qHTS for delayed death inhibitors of the malarial parasite plastid, 96 hour incubation
# Details: P. falciparum luciferase reporter growth; series mostly up to 28.7 µM; activity change, negative = inhibition: at the top concentration
# Method in brief: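 96 h incubation, 37 C, 5% CO2, of luciferase-reporter P. falciparum-infected RBCs (2% hematocrit, 0.05% parasitemia final) with test compounds; endpoint luminescence.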
# On the % scale 0 is the no-effect control and ±100 the full control effect; potency means the concentration at half of the fitted maximal effect.
Compound,"activity change, negative = inhibition",Potency
O=S(=O)(Nc1cccc(-c2cn3c(n2)SCC3)c1)c1ccc(F)cc1F,inactive: -24.3%,–
Cn1c(=O)n(C)c2cc(NC(=O)c3ccccc3NS(C)(=O)=O)ccc21,–,"inconclusive: 4.65 µM [inhibitor, partial curve, poor fit]"
CCc1nn(C(CC)C(=O)NCc2cccc(OC)c2OC)c(=O)c2cc3occc3n12 (centres undefined),–,"inconclusive: 6.57 µM [inhibitor, partial curve]"
CCOc1ccc(-n2cc(-c3ccccc3)c3c(=S)nc[nH]c32)cc1,–,"inconclusive: 4.15 µM [inhibitor, partial curve, poor fit]"
O=C(NCc1ccco1)C(=O)NCc1ccccc1Cl,–,"inconclusive: 7.38 µM [inhibitor, partial curve, poor fit]"
S=C(Nc1ccccc1)Nc1ccc2cn[nH]c2c1,inactive: 102%,–
OCC#CCSc1nnc(-c2ccncc2)o1,–,active: 0.294 µM
Cc1ccnc2ccc(SC(F)(F)F)cc12,inactive: 1.82%,–
Cc1ncoc1C(=O)N1CCc2c([nH]c3ccccc23)C1C(C)(C)C (centres undefined),–,"inconclusive: 0.0012 µM [inhibitor, full curve, poor fit]"
N#CC1=C(SCC(=O)Nc2ccccc2)NC(=O)CC1c1ccc(O)cc1 (centres undefined),–,active: 5.86 µM
Cc1cccc(/C=C2\Sc3ccc(C(=O)N4CCC(C(N)=O)CC4)cc3N(C)C2=O)c1,–,"inconclusive: 4.65 µM [inhibitor, partial curve]"
CCO[C@@H]1OC(C(=O)N2CCCCCCC2)=C[C@H](c2cn(C(C)=O)c3ccccc23)[C@H]1CCCO,–,active: 10.4 µM
COc1ccc(C(=O)C2CCCN(C(=O)CCc3scnc3C)C2)c(C)c1 (centres undefined),inactive: 260%,–
Cc1cc(C)c(C#N)c(SCc2nnc(-c3ccccc3[N+](=O)[O-])o2)n1,–,"inconclusive: 16.5 µM [inhibitor, single point]"
C/C(=N\NC(=O)COc1ccccc1[N+](=O)[O-])c1cccc(NC(=O)c2ccncc2)c1,–,"inconclusive: 11.7 µM [inhibitor, partial curve, poor fit]"
CCc1ccccc1NC(=O)CN(C)C(=O)c1cccc(S(=O)(=O)N2CCCCCC2)c1,–,"inconclusive: 18.5 µM [inhibitor, single point]"
CC(C)(C#CCCCCC#CC(C)(C)[N+](C)(C)C)[N+](C)(C)C,–,"inconclusive: 1.85 µM [inhibitor, full curve]"
Cc1ccccc1Nc1scc(-c2ccc(Br)cc2)[n+]1-c1ccccc1C,–,"inconclusive: 11.7 µM [inhibitor, partial curve]"
Cc1ccc(Cl)cc1NC(=O)C(=O)N/N=C/c1ccc2c(c1)OCO2,–,"inconclusive: 18.5 µM [inhibitor, single point]"
COc1ccc(S(N)(=O)=O)cc1C(N)=O,inactive: 6.16%,–
Fc1ccc(NC(=S)Nc2ccccc2OC(F)F)cc1Cl,–,"inconclusive: 18.5 µM [inhibitor, single point]"
O=C(CCCCO)CCCCCCCC[C@H]1N[C@H](CO)[C@H](O)[C@@H]1O[C@@H]1O[C@H](CO)[C@@H](O)[C@H](O)[C@H]1O,inactive: -10%,–
CSc1nnc(-c2sccc2OCc2ccc(C)cc2)n1C,–,"inconclusive: 3.29 µM [inhibitor, full curve, poor fit]"

Compound,"activity change, negative = inhibition",Potency
CCCCN(C(=O)C1CSC2(C)CCC(=O)N12)c1c(N)n(Cc2ccccc2)c(=O)[nH]c1=O (centres undefined),–,"inconclusive: 4.15 µM [inhibitor, single point]"
CCOC(=O)C(=O)Nc1ccc(OC)c(Cl)c1,–,"inconclusive: 4.15 µM [inhibitor, single point]"
COCCCNC(=O)CSc1nc2ccccc2c(=O)n1CCc1ccc(S(N)(=O)=O)cc1,–,"inconclusive: 0.0037 µM [inhibitor, full curve, poor fit]"
COc1cccc(/C=N/NC(=O)c2cc(-c3ccccn3)nc3ccccc23)c1O,–,"inconclusive: 18.5 µM [inhibitor, single point]"
O=C(NC1CCCCC1)c1ccc(N2CCCC2=O)cc1,–,"inconclusive: 8.28 µM [inhibitor, partial curve, poor fit]"
COc1ccc(CC(NC(C)=O)C(=O)NC2CCN(S(=O)(=O)c3ccc(NC(C)=O)cc3)CC2)cc1OC (centres undefined),–,active: 13.1 µM
O=C(c1sc2ccccc2c1Cl)N(Cc1ccccc1)C1CCS(=O)(=O)C1 (centres undefined),–,"inconclusive: 0.586 µM [inhibitor, full curve, poor fit]"
O=C(C1CC1)N1CCN(c2ccc(O)cc2)CC1,–,"inconclusive: 2.08 µM [inhibitor, full curve, poor fit]"
COc1ccc(-c2noc(CSc3nnc(-c4ccccc4)n3C)n2)cc1,–,"inconclusive: 10.4 µM [inhibitor, single point]"
Cc1cccc(NC(=O)CSCC(=O)N2CCN(C(=O)c3ccco3)CC2)c1,–,"inconclusive: 8.28 µM [inhibitor, partial curve, poor fit]"
S=C(NCCc1ccccc1)Nc1nccs1,–,"inconclusive: 18.5 µM [inhibitor, single point]"
Cc1ccc(C(=O)NC(=O)CSc2ncccc2C(=O)O)cc1,inactive: 80%,–
CC(C)c1onc(C(=O)NCc2ccc(F)cc2)c1[N+](=O)[O-],–,"inconclusive: 16.5 µM [inhibitor, single point]"
O=C(COC(=O)c1ccc([N+](=O)[O-])s1)Nc1ccccc1,inactive: -23%,–
COc1ccc2c(CC(=O)Nc3ccc(OC)c(NS(=O)(=O)c4ccc(F)cc4)c3)coc2c1,–,active: 14.7 µM
COC(=O)c1c(S(C)(=O)=O)nc(-c2ccccc2)[nH]c1=O,–,"inconclusive: 10.4 µM [inhibitor, single point]"
Cn1c(SCC(=O)NC2CC2)nnc1-c1cccc(NC(=O)c2ccccc2F)c1,inactive: 22.4%,–
COc1cc(C(=O)NNC(=O)c2ccc3ccccc3n2)cc(OC)c1OC,inactive: -73.4%,–
Cc1cc(NC(=O)CSc2nnc(C)n2-c2ccccc2C)no1,–,"inconclusive: 0.185 µM [inhibitor, full curve]"
CCN(CC)c1ccc2nc3c4ccccc4c(=O)cc-3oc2c1,inactive: -1.04%,–
COc1ccc(NC(=O)Nc2ccccc2SC)c(OC)c1,inactive: 0%,–
COc1cc(C2NCc3ccccc3-n3cccc32)ccc1O (centres undefined),–,"inconclusive: 18.5 µM [inhibitor, single point]"

# Structures shown so far that contain a thiophene ring, fused or not (3):
Compound,"activity change, negative = inhibition",Potency
CSc1nnc(-c2sccc2OCc2ccc(C)cc2)n1C,–,"inconclusive: 3.29 µM [inhibitor, full curve, poor fit]"
O=C(c1sc2ccccc2c1Cl)N(Cc1ccccc1)C1CCS(=O)(=O)C1 (centres undefined),–,"inconclusive: 0.586 µM [inhibitor, full curve, poor fit]"
O=C(COC(=O)c1ccc([N+](=O)[O-])s1)Nc1ccccc1,inactive: -23%,–

# Further results:

Compound,"activity change, negative = inhibition",Potency
CO[C@@H]1O[C@@H]2COC(c3ccccc3)O[C@@H]2[C@@H](OC)[C@@H]1O (some centres undefined),–,"inconclusive: 13.1 µM [inhibitor, single point]"
O=C(NNC(=O)c1ccco1)c1cccc(Br)c1,–,"inconclusive: 18.5 µM [inhibitor, single point]"
COc1ccc(N(C)C(=O)c2ccc(NC(=O)CCS(=O)(=O)c3cccs3)cc2)cc1,–,"inconclusive: 1.85 µM [inhibitor, full curve]"
Oc1c(C(Nc2ccccn2)c2cccnc2)cc(Cl)c2cccnc12 (centres undefined),inactive: 90.2%,–
COc1ccc(-c2cc(=O)c3ccccc3n2C)cc1,–,"inconclusive: 13.1 µM [inhibitor, single point]"
CCn1nc(NS(=O)(=O)c2ccc(NC(C)=O)cc2)c2cc3ccccc3nc21,–,"inconclusive: 18.5 µM [inhibitor, single point]"
CCN(CC)C(=O)CSc1nnc(CCCCCNC(=O)OC(C)(C)C)o1,–,active: 10.4 µM
CCC(CC)c1ncc[nH]1,–,"inconclusive: 2.08 µM [inhibitor, partial curve, poor fit]"
O=C(O)C(Cc1ccccc1)N1C(=O)/C(=C/c2cccs2)SC1=S (centres undefined),–,active: 10.4 µM
O=C(OCc1cccc(F)c1)c1cc2ccccc2cc1O,–,"inconclusive: 13.1 µM [inhibitor, single point]"
CC(CCc1ccccc1)NC(=O)c1ccc(NC(=O)c2ccc(Cl)cc2Cl)cc1 (centres undefined),inactive: -21.4%,–
COc1cc(NC(=S)NCCC(c2ccccc2)c2ccccc2)cc(OC)c1,–,"inconclusive: 3.7 µM [inhibitor, partial curve]"
CN(C)CCCNC(=S)/N=c1\sccn1Cc1ccccc1Cl,–,"inconclusive: 1.65 µM [inhibitor, full curve, poor fit]"
CC12CN3CC(C)(CN(C1)C3c1ccc([N+](=O)[O-])o1)C2=O (centres undefined),inactive: 26.6%,–
CN1CCN(S(=O)(=O)c2cccc(C(=O)Nc3nc(-c4ccccc4)cs3)c2)CC1,inactive: -70.5%,–
COc1ccc(CCNC(=O)COC(=O)/C=C/c2cccs2)cc1,inactive: 34.8%,–
Cc1ccc(NC(=O)COc2cccc3c2OC(C)(C)C3)c(O)c1,–,"inconclusive: 9.28 µM [inhibitor, partial curve, poor fit]"
COc1ccc(S(=O)(=O)N(CC(=O)NC2CCCC2)c2ccccc2OC)cc1,–,active: 11.7 µM
CC(C)(C)[C@H]1C=C(C(=O)NCc2ccccc2)O[C@@H](OCc2ccc(CO)cc2)C1,–,"inconclusive: 10.4 µM [inhibitor, single point]"
O=C(c1cccc(F)c1)N1CCN(c2cc(N3CCCCC3)c(F)cc2[N+](=O)[O-])CC1,–,"inconclusive: 10.4 µM [inhibitor, partial curve, poor fit]"
c1ccc(CCNC2=NCCS2)cc1,–,"inconclusive: 11.7 µM [inhibitor, single point]"
CCOC(=O)C1=C(NC(=S)NC(=O)c2ccccc2)c2ccccc2CC12CCCC2,–,"inconclusive: 13.1 µM [inhibitor, single point]"
Cc1c(C(=O)Nc2ccc(-c3nnc4n3CCCCC4)cc2)oc2ccc(Br)cc12,inactive: 11.4%,–
